Experimental data published in paper PMC7271519.
These are yes or no findings as the source states them, for the method shown. Binding seen in cells or lysates may run through a third protein. Some binding calls cover weakened binding; strength is not graded here. Tags and fused reporters may be left off the sequences shown.

Chains of the proteins cited; added tags and fusions are not shown. Lines headed by an entry give the natural chain unless they say otherwise; changes in a name come on top.
UniProt P14416: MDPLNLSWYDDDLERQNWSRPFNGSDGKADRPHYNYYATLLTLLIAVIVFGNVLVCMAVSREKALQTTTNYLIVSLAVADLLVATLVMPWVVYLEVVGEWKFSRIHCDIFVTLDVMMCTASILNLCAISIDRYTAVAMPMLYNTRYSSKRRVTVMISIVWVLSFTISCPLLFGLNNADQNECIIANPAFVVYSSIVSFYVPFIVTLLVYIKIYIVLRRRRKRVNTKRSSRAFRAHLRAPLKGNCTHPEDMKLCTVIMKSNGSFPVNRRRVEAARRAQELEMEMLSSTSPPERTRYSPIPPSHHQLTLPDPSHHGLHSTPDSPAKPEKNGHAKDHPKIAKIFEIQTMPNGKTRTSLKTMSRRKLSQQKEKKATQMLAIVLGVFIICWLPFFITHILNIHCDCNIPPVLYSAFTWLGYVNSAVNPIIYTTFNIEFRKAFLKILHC

These binders were tested against HA-D2R (dopamine D2 receptor) (UniProt P14416) (assay: co-IP; HEK293T cells co-transfected with HA-D2R and Flag-DISC1 (WT, R264Q or A83V); 500-700 ug solubilized protein, anti-HA or IgG with protein A/G plus agarose, 4 °C, 12 h; blotted with anti-Flag and anti-HA).

Row | binding | Binder
1 | binds | Flag-DISC1 R264Q variant (protein, UniProt Q9NRI5 1-854) MPGGGPQGAPAAAGGGGVSHRAGSRDCLPPAACFRRRRLARRPGYMRSSTGPGIGFLSPAVGTLFRFPGGVSGEESHHSESRARQCGLDSRGLLVRSPVSKSAAAPTVTSVRGTSAHFGIQLRGGTRLPDRLSWPCGPGSAGWQQEFAAMDSSETLDASWEAACSDGARRVRAAGSLPSAELSSNSCSPGCGPEVPPTPPGSHSAFTSSFSFIRLSLGSAGERGEAEGCPPSREAESHCQSPQEMGAKAASLDGPHEDPRCLSQPFSLLATRVSADLAQAARNSSRPERDMHSLPDMDPGSSSSLDPSLAGCGGDGSSGSGDAHSWDTLLRKWEPVLRDCLLRNRRQMEVISLRLKLQKLQEDAVENDDYDKAETLQQRLEDLEQEKISLHFQLPSRQPALSSFLGHLAAQVQAALRRGATQQASGDDTHTPLRMEPRLLEPTAQDSLHVSITRRDWLLQEKQQLQKEIEALQARMFVLEAKDQQLRREIEEQEQQLQWQGCDLTPLVGQLSLGQLQEVSKALQDTLASAGQIPFHAEPPETIRSLQERIKSLNLSLKEITTKVCMSEKFCSTLRKKVNDIETQLPALLEAKMHAISGNHFWTAKDLTEEIRSLTSEREGLEGLLSKLLVLSSRNVKKLGSVKEDYNRLRREVEHQETAYETSVKENTMKYMETLKNKLCSCKCPLLGKVWEADLEACRLLIQSLQLQEARGSLSVEDERQMDDLEGAAPPIPPRLHSEDKRKTPLKVLEEWKTHLIPSLHCAGGEQKEESYILSAELGEKCEDIGKKLLYLEDQLHTAIHSHDEDLIQSLRRELQMVKETLQAMILQLQPAKEAGEREAAASCMTAGVHEAQA
2 | binds | Flag-DISC1 (wild type) (protein, UniProt Q9NRI5 1-854) MPGGGPQGAPAAAGGGGVSHRAGSRDCLPPAACFRRRRLARRPGYMRSSTGPGIGFLSPAVGTLFRFPGGVSGEESHHSESRARQCGLDSRGLLVRSPVSKSAAAPTVTSVRGTSAHFGIQLRGGTRLPDRLSWPCGPGSAGWQQEFAAMDSSETLDASWEAACSDGARRVRAAGSLPSAELSSNSCSPGCGPEVPPTPPGSHSAFTSSFSFIRLSLGSAGERGEAEGCPPSREAESHCQSPQEMGAKAASLDGPHEDPRCLSRPFSLLATRVSADLAQAARNSSRPERDMHSLPDMDPGSSSSLDPSLAGCGGDGSSGSGDAHSWDTLLRKWEPVLRDCLLRNRRQMEVISLRLKLQKLQEDAVENDDYDKAETLQQRLEDLEQEKISLHFQLPSRQPALSSFLGHLAAQVQAALRRGATQQASGDDTHTPLRMEPRLLEPTAQDSLHVSITRRDWLLQEKQQLQKEIEALQARMFVLEAKDQQLRREIEEQEQQLQWQGCDLTPLVGQLSLGQLQEVSKALQDTLASAGQIPFHAEPPETIRSLQERIKSLNLSLKEITTKVCMSEKFCSTLRKKVNDIETQLPALLEAKMHAISGNHFWTAKDLTEEIRSLTSEREGLEGLLSKLLVLSSRNVKKLGSVKEDYNRLRREVEHQETAYETSVKENTMKYMETLKNKLCSCKCPLLGKVWEADLEACRLLIQSLQLQEARGSLSVEDERQMDDLEGAAPPIPPRLHSEDKRKTPLKVLEEWKTHLIPSLHCAGGEQKEESYILSAELGEKCEDIGKKLLYLEDQLHTAIHSHDEDLIQSLRRELQMVKETLQAMILQLQPAKEAGEREAAASCMTAGVHEAQA
3 | binds | Flag-DISC1 A83V variant (protein, UniProt Q9NRI5 1-854) MPGGGPQGAPAAAGGGGVSHRAGSRDCLPPAACFRRRRLARRPGYMRSSTGPGIGFLSPAVGTLFRFPGGVSGEESHHSESRVRQCGLDSRGLLVRSPVSKSAAAPTVTSVRGTSAHFGIQLRGGTRLPDRLSWPCGPGSAGWQQEFAAMDSSETLDASWEAACSDGARRVRAAGSLPSAELSSNSCSPGCGPEVPPTPPGSHSAFTSSFSFIRLSLGSAGERGEAEGCPPSREAESHCQSPQEMGAKAASLDGPHEDPRCLSRPFSLLATRVSADLAQAARNSSRPERDMHSLPDMDPGSSSSLDPSLAGCGGDGSSGSGDAHSWDTLLRKWEPVLRDCLLRNRRQMEVISLRLKLQKLQEDAVENDDYDKAETLQQRLEDLEQEKISLHFQLPSRQPALSSFLGHLAAQVQAALRRGATQQASGDDTHTPLRMEPRLLEPTAQDSLHVSITRRDWLLQEKQQLQKEIEALQARMFVLEAKDQQLRREIEEQEQQLQWQGCDLTPLVGQLSLGQLQEVSKALQDTLASAGQIPFHAEPPETIRSLQERIKSLNLSLKEITTKVCMSEKFCSTLRKKVNDIETQLPALLEAKMHAISGNHFWTAKDLTEEIRSLTSEREGLEGLLSKLLVLSSRNVKKLGSVKEDYNRLRREVEHQETAYETSVKENTMKYMETLKNKLCSCKCPLLGKVWEADLEACRLLIQSLQLQEARGSLSVEDERQMDDLEGAAPPIPPRLHSEDKRKTPLKVLEEWKTHLIPSLHCAGGEQKEESYILSAELGEKCEDIGKKLLYLEDQLHTAIHSHDEDLIQSLRRELQMVKETLQAMILQLQPAKEAGEREAAASCMTAGVHEAQA
